Data taken from patent EP1884243A1, “Use of an antipsychotic drug for the treatment of ALS-associated cachexia” (Charité - Universitätsmedizin Berlin, priority 2006, dated 2008).
For at least one compound, name, drawing or mass did not settle the structure.

How the values were obtained:
Format in all cases: in vivo, human being
Conditions in all cases: olanzapine orally 5 mg per day
ALS-related cachexia [1] = assay: Study: olanzapine treatment of ALS-related cachexia, case report of a patient
From the text: A patient is reported, who developed a slowly-progressive motor neuron syndrome. The patient fulfilled the criteria for definite ALS. The disease began with atrophy and weakness of the small muscles of the left hand followed by weakness of the right distal arm. In the course of 2 years after onset they experienced slowly progressive atrophy and flaccid paresis of the upper limbs with only residual functions in handling articles. After 4 years they developed a gait disorder which progressed to the point were they required a walking-aid. […] The patient was without dysphagia.
During the course of 10 months, the patient developed an unintended weight loss of 12 kg of body weight resulting in fatigue and reduced mobility. The patient suffered from diminished appetite. The body mass index (BMI) was 17.2 kg/m^2 and fulfilled the diagnostic criteria of cachexia. For the pharmacological intervention of ALS-related cachexia the medication with olanzapine was initiated. Olanzapine was given orally in the dosage of 5 mg per day. Olanzapine was administered twice daily using one tablet of olanzapine 2.5 mg each in the morning and in the evening. […] The BMI increased to 18,8 kg/m^2. […] Residual motor functions were mobilized. […] At the time of this report, the olanzapine treatment was ongoing.

ALS-related cachexia [2] = assay: Study 2: olanzapine treatment of ALS-related cachexia, case report of a patient
From the text: A patient is reported, who developed a slowly-progressive motor neuron syndrome. The patient fulfilled the criteria for ALS. The disease began with atrophy and weakness of the small muscles of the right hand followed by weakness of the proximal muscles of right arm and the opposite upper limb. In the course of 4 years after onset they experienced progressive atrophy and flaccid paresis of the lower limbs resulting in a gait disorder. […] The patient was without dysphagia.
During the course of 12 months, the patient developed an unintended weight loss of 8.5 kg of body weight. The weight loss was associated with fatigue. The patient suffered from diminished appetite. The body mass index (BMI) reduced from 23.3 kg/ m^2 to 20.5 kg/m^2. At the same time the ALS functional rating scale (ALS-FRS revised) changed from 43 to 39 units. Most of the wasting occurred within 6 month before intervention (loss of 6.5 kg of body weight; total body weight of 61.5 kg). For the pharmacological intervention of ALS-related cachexia the medication with olanzapine was initiated. Olanzapine was given orally in the dosage of 5 mg per day. Olanzapine was administered once daily using one tablet of olanzapine 5 mg in the evening. The medication attenuated ALS-related cachexia and wasting. After 2 month of olanzapine treatment the body weight was stabilized (61.0 kg). The loss of BMI was also attenuated (20.3 kg/m^2). […] Residual motor functions were mobilized. […] At the time of this report, the olanzapine dosage was increased to 10 mg per day. Olanzapine was administered twice daily using one tablet of olanzapine 5 mg each in the morning and in the evening. […] The olanzapine treatment was ongoing. Based on reports on olanzapine-related weight gain in patients with psychosis, the target dose of olanzapine for the treatment of ALS-cachexia is 20 mg per day. In the case of persistent ALS-related weight loss, the treatment with 30 mg olanzapine per day is recommended.

ALS-related cachexia [3] = assay: Study 3: olanzapine treatment of ALS-related cachexia, case report of a patient
From the text: A patient is reported, who developed a slowly-progressive motor neuron syndrome. The patient fulfilled the criteria for ALS. The disease began with atrophy and weakness of the proximal left arm followed by weakness of the distal muscles of left upper limb. In the course of 2 years after onset they experienced progressive atrophy and flaccid paresis of the opposite limb with only residual functions in handling articles. After 3 years the disorder progressed to the point that was complete loss of manual functions. The patient developed hypoventilation resulting in ventilatory support using non-invasive intermittent positive pressure ventilation (NIPPV). The patient was without dysphagia.
During the course of 9 months, the patient developed an unintended weight loss of 14.5 kg of body weight. The weight loss was associated with fatigue. The patient suffered from diminished appetite. The body mass index (BMI) reduced from 23.0 kg/ m^2 to 17.5 kg/m^2. Most of the wasting occurred within 5 month before intervention (loss of 8.5 kg of body weight; total body weight reduced from 55 kg to 46.5 kg). For the pharmacological intervention of ALS-related cachexia the medication with olanzapine was initiated. Olanzapine was given orally in the dosage of 5 mg per day. Olanzapine was administered once daily using one tablet of olanzapine 5 mg in the evening. […]

## Cc1cc2c(s1)Nc1ccccc1N=C2N1CCN(C)CC1 [olanzapine]
ALS-related cachexia [1]
  ALS function rating scale (ALS-FRS): stabilized and did not decrease
  mobility of the patient: increased mobility
  nutritional state and general strength: improved
  residual motor functions: mobilized
  walking distance: reached the level before the onset of cachexia
ALS-related cachexia [1]; described by the patient
  quality of life: improved quality of life
ALS-related cachexia [2]
  mobility of the patient: increased mobility
  nutritional state and general strength: improved
  residual motor functions: mobilized
ALS-related cachexia [2]; once daily in the evening
  ALS-related cachexia and wasting: attenuated
ALS-related cachexia [2]; described by the patient
  quality of life: improved quality of life
ALS-related cachexia [3]; after 4 weeks 10 mg per day
  nutritional state and general strength: improved
ALS-related cachexia [3]; after 4 weeks increased to 10 mg per day
  ALS-related cachexia and wasting: attenuated
